# Library screening results

Amino acid sequences for entries named in this document (tags omitted).
UniProt E9BF75, entry or part of it: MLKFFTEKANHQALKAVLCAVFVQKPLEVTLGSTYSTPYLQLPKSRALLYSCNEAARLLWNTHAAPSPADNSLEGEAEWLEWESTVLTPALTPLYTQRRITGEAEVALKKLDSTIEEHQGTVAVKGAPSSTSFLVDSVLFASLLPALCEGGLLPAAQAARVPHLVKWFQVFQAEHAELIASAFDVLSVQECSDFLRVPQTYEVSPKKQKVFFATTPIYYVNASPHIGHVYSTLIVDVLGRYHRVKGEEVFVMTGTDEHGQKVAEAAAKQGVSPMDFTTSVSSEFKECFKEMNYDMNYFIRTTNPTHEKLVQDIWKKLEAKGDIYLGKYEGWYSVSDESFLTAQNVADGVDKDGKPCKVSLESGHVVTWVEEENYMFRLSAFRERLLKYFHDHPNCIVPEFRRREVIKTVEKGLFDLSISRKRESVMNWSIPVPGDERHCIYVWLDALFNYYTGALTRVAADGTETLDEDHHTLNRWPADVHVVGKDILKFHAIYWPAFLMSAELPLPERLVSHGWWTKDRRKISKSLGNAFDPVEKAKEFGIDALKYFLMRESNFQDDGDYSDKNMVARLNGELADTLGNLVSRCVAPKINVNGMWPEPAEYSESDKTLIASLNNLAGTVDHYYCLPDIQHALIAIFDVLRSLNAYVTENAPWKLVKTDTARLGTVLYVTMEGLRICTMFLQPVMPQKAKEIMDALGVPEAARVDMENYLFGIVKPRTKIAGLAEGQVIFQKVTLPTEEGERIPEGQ

Measurements from “University of Dundee, Small-Polar-MMV Screening Library” (2021), ChEMBL document CHEMBL3988442.

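Primary screen of methionyl-tRNA synthetase; the read-out is not stated. Target: Methionyl-tRNA synthetase (putative), Leishmania donovani (UniProt E9BF75). The test concentration is not given. The values are filed as inhibition. Of about 68,000 compounds tested this way, about 24 (0.035%) reached 50% or more in at least one test.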

All values are in %.
How 0% and 100% were set is not recorded. Most values in the screen are low, and negative values occur.
Compounds were drawn at random from those tested, without regard to their results.

SMILES	inhibition
CCOc1ncnc2c1CCN(S(=O)(=O)C1CC1)CC2	-3.114
Cc1noc(C)c1CN(C)C(=O)CN1CC(c2ccccc2)CC1=O (stereo not shown)	5.861
CCn1cnnc1CN(C)C(=O)c1cc(COc2cccc(F)c2)[nH]n1	5.136
Cc1nccn1C1(C(=O)O)CCN(Cc2ccc3occc3c2)CC1	7.444
FC(F)(F)c1nc(NC2CCCC2)c2ccccc2n1	13.33
CC(c1cc(F)ccc1F)N1CCN(C(=O)c2ccc(=O)[nH]c2)CC1 (stereo not shown)	22.75
CCCC(C)CN1CCC(n2cc(C3CCCC3)nn2)CC1 (stereo not shown)	15.61
CC(C)COC(C)C(=O)NCc1cc(F)cc(F)c1 (stereo not shown)	15.28
CN(Cc1cccc(F)c1)C(=O)CN1CCCC1CCc1ccccc1 (stereo not shown)	9.449
Cc1ccccc1NC(=O)NCCn1nc(C(F)(F)F)n(C)c1=O	12.24
CCc1nc(CN2CCCN(C(=O)CCSC)CC2)cs1	9.816
CN(C1CCN(c2ccccn2)CC1)S(=O)(=O)c1cccc(F)c1	9.777
Cc1nc(COCC2CN(C(N)=O)Cc3nccn3C2)cs1 (stereo not shown)	-1.093
Cc1nccn1C1CCCN(C(=O)Cn2ccc(=O)n(C)c2=O)C1 (stereo not shown)	8.011
O=C(CN1CCC(c2nnc(C(F)(F)F)o2)CC1)Nc1cccc(Cl)c1	3.107
CCn1cnnc1C1CCN(C(=O)COCCc2ccccc2)CC1	3.472
Cc1ccccc1CS(=O)(=O)CC(=O)N(C)Cc1ccccc1	16.77
O=C(CCOc1ccccc1F)N1CCCC1Cn1cccn1 (stereo not shown)	16.48
NC(=O)C(CNC(=O)COCC(F)(F)F)Cc1ccc(F)cc1 (stereo not shown)	9.859
CC(C)[C@H](NC(=O)NC1CCS(=O)(=O)C1)C(=O)NCc1ccccc1Cl (stereo partly shown)	11.2
COc1ccccc1CN1C(=O)O[C@@H]2CN(c3nc(C)cnc3C)C[C@@H]21	13.77
Cc1ccc(-c2nc(CN3CCn4c(nnc4C4CC4)C3)no2)cc1	14.51
CCn1cc(CN(C)c2nc(C)c3ccc(S(C)(=O)=O)cc3n2)cn1	16.55
CCCn1cnc2c1CN(S(=O)(=O)Cc1ccccc1)[C@H](C(=O)OC)C2	6.015
Cc1n[nH]c(C)c1CCC(=O)NCC1CCCN(C2CCCC2)C1 (stereo not shown)	9.309
CC(C)=CCN1Cc2nnc(C3CCOCC3)n2C(Cc2c[nH]cn2)C1 (stereo not shown)	2.957
COCCN1CCCN(C(=O)c2scnc2C)CC1	15.77
CCN1CCC(N[C@@H]2CC[C@@H]2NC(=O)Cc2csc(C)n2)CC1	15.81
CCCn1c(C)c(CC(=O)N(C)CC(=O)OC)c2c1CC(C)(C)CC2=O	13.35
CN1CCN(c2nc(O)c3c(-c4ccccn4)ccnc3n2)CC1	7.746
COc1cc(NC(=O)NCc2ccccn2)cc(OC)c1	4.676
CN(Cc1cccc(F)c1)C(=O)CS(=O)(=O)Cc1ccc(Cl)c(Cl)c1	8.591
CCOCC(O)CN1CCN(C(=O)c2ccncc2)CC1 (stereo not shown)	9.239
COc1cccc(-c2n[nH]c3c2CN(C(=O)C2=C(C)OCCO2)CC3)c1	9.157
COCC(C)NC(=O)CCCn1cnc2ccccc2c1=O (stereo not shown)	8.065
CCOC(=O)NCCNC(=O)c1cc(Br)cn1C(C)C	9.239
Cc1cc(CC(C)NC2CCN(CC(C)C)CC2)[nH]n1 (stereo not shown)	8.696
O=C(Nc1cccc(CNCc2ccsc2)c1)C1CC1	2.222
CSC(C)C(=O)Nc1ccnn1-c1ccccc1C (stereo not shown)	12.13
c1ccc(NCc2cn3c(n2)CN(Cc2cccs2)CC3)nc1	14.01
CC(C)Cc1cc(C(=O)N2CCC(C(=O)N3CCOCC3)CC2)on1	9.938
CCc1noc(CCCC(=O)Nc2cc(C(F)(F)F)c[nH]c2=O)n1	9.384
Cc1nonc1C1CCCN1C(=O)c1cc2n(n1)CCCNC2 (stereo not shown)	2.799
CC(C)N1CCC(Nc2ccn(CCC#N)n2)C1=O (stereo not shown)	7.317
CC[S+](CC)[c-]1c(=O)[nH]c(=O)n(Cc2ccc(F)cc2)c1=O	10.78
COCc1noc(Cn2ccc3ncccc3c2=O)n1	6.863
O=S(=O)(C1CC1)N1CC[C@]2(C[C@H](OCC3CCOCC3)CO2)C1	2.92
CCCn1ncc(C(=O)N2CCCC(OCc3ccccn3)C2)c1C (stereo not shown)	10.3
COCC(NC(=O)NCc1sccc1C)c1ccco1 (stereo not shown)	13.42
COc1cc(Cl)ccc1CNC(=O)N1CCC(n2cncn2)CC1	18.23
COc1ccc(C[C@H]2CN(C(=O)c3ccn(C)n3)CC[C@H]2OC)cc1	16.81
Cc1nc(N2CCN(C(=O)c3cccs3)CC2)cc(-n2cccc2)n1	16.15
Cc1cc(CN2CCN(C(=O)NCc3csc(C)n3)CC2)no1	4.217
Cc1cnn(CCNCc2ccc(C#N)cc2F)c1	6.032

Repeated from the top, 3 entries:

- CCOc1ncnc2c1CCN(S(=O)(=O)C1CC1)CC2 | -3.114%
- Cc1noc(C)c1CN(C)C(=O)CN1CC(c2ccccc2)CC1=O (stereo not shown) | 5.861%
- CCn1cnnc1CN(C)C(=O)c1cc(COc2cccc(F)c2)[nH]n1 | 5.136%